Results taken from PubChem BioAssay AID504842 (National Center for Advancing Translational Sciences (NCATS), 2011).
Out of some 330,000 compounds screened, about 100 (0.03%) were called active. Inconclusive means that the source gave no clear call. Such entries were picked first, then a sample of the others. Calls come from the whole dose curve; as a rule, active = well fitted inhibition curve with a large enough effect; inconclusive = small, poorly fitted or top-dose-only effect; inactive = flat fitted curve, though single readings scatter. A potency beside an inconclusive call is a rough fit, not a confirmed value.

System: Chaperonin Mm-Cpn (Methanococcus maripaludis)
Test: Inhibitors of TCP-1 ring complex (TRiC) of Methanococcus maripaludis (MmCpn): qHTS; note: nearly all actives have a fitted effect of over 80% in size;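 for potency: enzyme at 25 nM with ATP substrate at 10 µM during the reaction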
Settings: purified Mm-Cpn ATPase, ADP Transcreener TR-FRET; activity, negative = inhibition: at the top concentration
In short: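 Eu-cryptate anti-ADP/ADP-d2 competition gives a ratio inversely related to ADP. Enzyme at 25 nM was pre-exposed to compound for 10 min, then given 10 uM ATP for 30 min, 37°C throughout.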
% is set by controls: 0 for no effect and ±100 for the full control effect; potency is the fitted concentration of half-maximal effect.

Potency, inconclusive:
O=C1/C(=C/c2cccc(O)c2)SC(=S)N1CC1CCCO1 (configuration not stated) 89.1 µM [inhibitor, single point]
O=C(CSc1n[nH]c(-c2ccc(Br)cc2)n1)N1CCOCC1 79.4 µM [inhibitor, single point]
CN(C)S(=O)(=O)Nc1ccc(Oc2ccccc2)cc1 79.4 µM [inhibitor, single point]
CCCC(=O)NC(=S)Nc1nc(-c2ccc(OC)cc2)cs1 100 µM [inhibitor, single point]
COc1ccccc1C(=O)Nc1c2c(nn1-c1cccc(C)c1C)CS(=O)(=O)C2 10 µM [inhibitor, single point]
O=C(N/N=C/c1c[nH]c2ccccc12)c1ccc(Cl)cc1 112 µM [inhibitor, single point]
CSc1nc(N)n2nc(C(C)(C)C)cc2n1 89.1 µM [inhibitor, single point]
Cc1ccc(C(=O)Nc2ccc(C(=O)O)cc2NC(=O)c2ccc(C)cc2)cc1 20 µM [inhibitor, single point]
CC(=O)N(CCc1cccc(C)c1)Cc1cc2ccc(C)cc2[nH]c1=O 89.1 µM [inhibitor, single point]
Cc1nc2ccc(S(=O)(=O)Nc3ccccc3C)cc2s1 100 µM [inhibitor, single point]
CC(C(=O)N1CCCCCC1)N(c1ccc(Cl)cc1)S(C)(=O)=O (configuration not stated) 79.4 µM [inhibitor, single point]
Cc1nc(C)c(-c2ccc(SCC(=O)Nc3cccc(F)c3)nn2)s1 158 µM [inhibitor, partial curve, poor fit]
CCOc1ccc2[nH]c(=O)c(CN(CCN3CCCC3)C(=S)Nc3ccccc3OC)cc2c1 22.4 µM [inhibitor, single point]
Cc1cc(C(=O)CSc2nc3ccc(Cl)cc3[nH]2)c(C)n1CC1CCCO1 (configuration not stated) 56.2 µM [inhibitor, single point]
O=C(COc1ccccc1[N+](=O)[O-])OCC(=O)c1ccc(Br)s1 126 µM [inhibitor, partial curve, poor fit]
COc1ccccc1NS(=O)(=O)c1cccc(C(=O)N/N=C2\CC(=O)CC(C)(C)C2)c1 100 µM [inhibitor, partial curve, poor fit]
Cn1c2ccccc2c2nnc(SCC(=O)NC3CC3)nc21 89.1 µM [inhibitor, single point]
CC1CCCCC1NC(=O)CCC(=O)N1CCOc2ccc(Cl)cc21 (configuration not stated) 10 µM [inhibitor, single point]
Cc1cc(C)n(-c2ccc(C(=O)Nc3cccnc3Cl)cc2)n1 100 µM [inhibitor, partial curve, poor fit]
N/C(=N\NC(=O)c1ccc(F)cc1)c1cc2ccccc2oc1=O 63.1 µM [inhibitor, single point]
COc1ccc(CC(=O)Nc2nnc(SCC(=O)NCc3ccco3)s2)cc1OC 100 µM [inhibitor, single point]
c1ccc(-c2csc3ncnc(NCC4COc5ccccc5O4)c23)cc1 (configuration not stated) 70.8 µM [inhibitor, single point]
CC1CCC(N2CCN(S(C)(=O)=O)CC2)CC1 (configuration not stated) 100 µM [inhibitor, single point]
CCOc1ccc(-n2c(SCC(=O)Nc3ccc(OC)cc3)nc3sc4c(c3c2=O)CCN(C)C4)cc1 112 µM [inhibitor, partial curve, poor fit]
COC(=O)C1CCN(CC(=O)Nc2ccccc2Sc2ccccc2)CC1 89.1 µM [inhibitor, single point]
O=C1CCC(=O)N1c1ccc(S(=O)(=O)Nc2ccc(Br)cc2)cc1 25.1 µM [inhibitor, single point]
CCCc1nc2ccccc2c(=O)n1/N=C/c1ccc(O)cc1 10 µM [inhibitor, single point]
CSc1cccc(NC(=O)C2C3C=CC4(O3)C2C(=O)N(CCCN2CCOCC2)C4C(=O)NC2CCCCC2)c1 (configuration not stated) 79.4 µM [inhibitor, single point]
O=S(=O)(c1ccc(Oc2ncnc3scc(-c4ccccc4)c23)cc1)N1CCOCC1 100 µM [inhibitor, single point]
COc1cccc(NC(=O)CN(C)C(=O)/C=C/c2cn(-c3ccccc3)nc2-c2cccs2)c1 100 µM [inhibitor, single point]
COc1cccc(NC(=O)CC(=O)c2ccc([N+](=O)[O-])cc2)c1 56.2 µM [inhibitor, single point]
CCOC(=O)c1c(C2CC2)csc1NC(=O)COC(=O)c1cnc(Cl)c(Cl)c1 15.8 µM [inhibitor, single point]

activity, negative = inhibition, inactive:
CCOC(=O)C1CCCN(C(=O)c2ccc(Cl)cc2)C1 (configuration not stated) -1.01%
C=CCN(CC=C)S(=O)(=O)c1ccc(NC(=S)NC(=O)c2ccco2)cc1 -7.12%
COc1ccc(C)cc1-n1nnnc1SCC1CCCO1 (configuration not stated) 1.92%
O=C(c1ccccc1)c1ccc(OCCOCCN2CCN(Cc3ccccc3)CC2)cc1 -3.41%
COC(=O)c1cc([N+](=O)[O-])ccc1N1CCN(Cc2ccccc2)CC1 2.01%
O=C(CN(Cc1ccc(Br)cc1)S(=O)(=O)c1ccccc1)NCc1ccccn1 0.785%
COc1ccc(S(=O)(=O)Nc2cccc3c2O[C@H](CN(C)S(=O)(=O)c2ccc(F)cc2)[C@H](C)CN([C@H](C)CO)C3=O)cc1 0.96%
Oc1ccc(N=Cc2ccc(O)c(O)c2)cc1 -9.66%
COc1ccc(OCC(=O)Nc2cc(OC)cc(OC)c2)cc1 2.53%
NC(=O)N/N=C/c1ccccc1OC(=O)c1cc2ccccc2oc1=O 1.75%

As a short view, 4 of the compounds above:
activity, negative = inhibition, inactive:
O=C(CN(Cc1ccc(Br)cc1)S(=O)(=O)c1ccccc1)NCc1ccccn1 0.785%
COc1ccc(S(=O)(=O)Nc2cccc3c2O[C@H](CN(C)S(=O)(=O)c2ccc(F)cc2)[C@H](C)CN([C@H](C)CO)C3=O)cc1 0.96%
Oc1ccc(N=Cc2ccc(O)c(O)c2)cc1 -9.66%
COc1ccc(OCC(=O)Nc2cc(OC)cc(OC)c2)cc1 2.53%
